# Reference: PMC12266122
# Sequences of proteins named here, by UniProt entry; tags and fusion partners are left off.
# UniProt Q9UHY1: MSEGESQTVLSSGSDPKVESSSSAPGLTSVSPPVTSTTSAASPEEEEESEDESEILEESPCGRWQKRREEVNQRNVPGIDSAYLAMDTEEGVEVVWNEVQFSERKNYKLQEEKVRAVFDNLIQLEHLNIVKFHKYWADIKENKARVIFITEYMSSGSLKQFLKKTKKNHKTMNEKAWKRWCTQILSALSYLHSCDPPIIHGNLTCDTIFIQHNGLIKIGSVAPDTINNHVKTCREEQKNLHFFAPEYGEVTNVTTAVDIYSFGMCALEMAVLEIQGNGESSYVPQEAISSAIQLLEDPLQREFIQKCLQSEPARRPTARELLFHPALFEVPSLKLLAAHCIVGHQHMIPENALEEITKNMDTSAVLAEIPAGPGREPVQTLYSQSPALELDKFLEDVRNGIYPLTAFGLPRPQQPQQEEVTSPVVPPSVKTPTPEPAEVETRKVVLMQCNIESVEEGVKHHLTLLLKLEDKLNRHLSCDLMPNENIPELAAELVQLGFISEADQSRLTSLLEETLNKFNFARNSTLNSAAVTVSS
# UniProt Q9H4A3: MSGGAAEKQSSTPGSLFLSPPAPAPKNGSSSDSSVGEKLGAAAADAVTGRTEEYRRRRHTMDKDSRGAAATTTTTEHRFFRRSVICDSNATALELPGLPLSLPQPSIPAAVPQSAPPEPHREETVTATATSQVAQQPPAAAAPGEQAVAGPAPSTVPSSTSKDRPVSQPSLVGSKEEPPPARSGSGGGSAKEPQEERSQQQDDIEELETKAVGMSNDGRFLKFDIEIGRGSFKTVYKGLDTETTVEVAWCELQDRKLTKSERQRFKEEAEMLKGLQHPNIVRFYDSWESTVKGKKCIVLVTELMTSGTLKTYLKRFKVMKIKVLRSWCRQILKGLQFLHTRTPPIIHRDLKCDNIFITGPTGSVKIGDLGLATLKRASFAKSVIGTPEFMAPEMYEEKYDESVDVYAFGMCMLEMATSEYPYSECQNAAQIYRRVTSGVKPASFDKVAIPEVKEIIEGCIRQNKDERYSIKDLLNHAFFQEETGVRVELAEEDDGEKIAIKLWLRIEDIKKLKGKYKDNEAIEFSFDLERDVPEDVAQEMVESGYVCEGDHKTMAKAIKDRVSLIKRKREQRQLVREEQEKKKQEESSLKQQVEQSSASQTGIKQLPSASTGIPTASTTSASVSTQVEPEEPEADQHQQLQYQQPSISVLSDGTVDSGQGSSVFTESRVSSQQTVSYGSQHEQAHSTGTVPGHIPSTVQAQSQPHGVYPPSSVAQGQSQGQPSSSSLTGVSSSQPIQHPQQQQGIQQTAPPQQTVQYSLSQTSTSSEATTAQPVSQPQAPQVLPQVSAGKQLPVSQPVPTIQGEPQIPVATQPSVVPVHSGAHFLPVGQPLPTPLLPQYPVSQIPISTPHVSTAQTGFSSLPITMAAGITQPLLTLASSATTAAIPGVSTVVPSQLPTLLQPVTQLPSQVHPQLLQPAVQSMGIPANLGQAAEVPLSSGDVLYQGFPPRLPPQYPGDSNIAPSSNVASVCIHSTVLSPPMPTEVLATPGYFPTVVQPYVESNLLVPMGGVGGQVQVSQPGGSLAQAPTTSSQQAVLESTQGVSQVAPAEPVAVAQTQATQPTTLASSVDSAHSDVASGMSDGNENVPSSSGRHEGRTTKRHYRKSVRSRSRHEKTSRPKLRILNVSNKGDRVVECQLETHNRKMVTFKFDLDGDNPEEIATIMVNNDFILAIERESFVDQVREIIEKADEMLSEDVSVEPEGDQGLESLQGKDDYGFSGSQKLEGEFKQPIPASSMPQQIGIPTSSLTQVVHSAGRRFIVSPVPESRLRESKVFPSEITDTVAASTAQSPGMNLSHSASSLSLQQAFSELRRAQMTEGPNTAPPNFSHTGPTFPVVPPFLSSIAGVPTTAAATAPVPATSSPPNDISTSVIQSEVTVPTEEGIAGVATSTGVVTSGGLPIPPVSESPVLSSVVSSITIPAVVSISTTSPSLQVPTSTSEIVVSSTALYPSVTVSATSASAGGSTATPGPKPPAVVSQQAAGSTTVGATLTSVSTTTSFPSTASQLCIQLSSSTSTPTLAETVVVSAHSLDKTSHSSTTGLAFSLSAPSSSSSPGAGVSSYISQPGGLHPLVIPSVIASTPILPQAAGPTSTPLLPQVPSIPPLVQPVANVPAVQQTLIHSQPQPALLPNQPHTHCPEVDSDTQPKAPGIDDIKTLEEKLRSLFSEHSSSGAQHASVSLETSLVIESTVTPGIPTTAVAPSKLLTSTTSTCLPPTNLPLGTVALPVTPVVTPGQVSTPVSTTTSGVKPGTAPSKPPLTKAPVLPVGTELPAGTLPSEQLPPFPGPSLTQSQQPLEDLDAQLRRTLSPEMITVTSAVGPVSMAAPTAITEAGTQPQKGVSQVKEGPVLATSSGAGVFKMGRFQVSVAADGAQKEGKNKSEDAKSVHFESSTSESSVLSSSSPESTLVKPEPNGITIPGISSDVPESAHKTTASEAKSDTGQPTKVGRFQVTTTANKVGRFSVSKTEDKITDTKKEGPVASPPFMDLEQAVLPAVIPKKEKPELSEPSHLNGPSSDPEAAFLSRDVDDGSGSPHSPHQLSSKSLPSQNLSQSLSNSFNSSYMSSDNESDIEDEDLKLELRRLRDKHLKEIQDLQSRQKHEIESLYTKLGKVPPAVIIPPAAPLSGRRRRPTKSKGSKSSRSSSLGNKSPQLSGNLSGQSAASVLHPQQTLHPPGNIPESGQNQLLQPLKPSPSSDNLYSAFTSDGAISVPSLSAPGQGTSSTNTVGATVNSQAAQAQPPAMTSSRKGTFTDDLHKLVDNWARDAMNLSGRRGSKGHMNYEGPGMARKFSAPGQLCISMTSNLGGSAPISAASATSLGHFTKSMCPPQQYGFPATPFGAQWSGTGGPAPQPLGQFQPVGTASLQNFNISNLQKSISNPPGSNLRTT
# These are yes or no findings as the source states them, for the method shown. Binding seen in cells or lysates may run through a third protein. Here binding means that the protein was enriched with, or labelled near, the bait; the list need not be complete.
# Tests used:
# [1] = biological target: GFP-NRBP1 (N-terminal GFP knock-in at the endogenous NRBP1 locus) (human (endogenous in HEK293)) (UniProt Q9UHY1); assay: affinity purification with mass spectrometry; GFP-NRBP1 KI and WT HEK293 cells with or without 0.5 M sorbitol for 30 min; lysis in 20 mM Hepes pH 7.5, 150 mM NaCl, 0.5% NP-40; GFP-Trap magnetic beads, 4°C, 2 hours; DIA mass spectrometry
# [2] = biological target: GFP-WNK1 (N-terminal GFP knock-in at the endogenous WNK1 locus) (human (endogenous in HEK293)) (UniProt Q9H4A3); assay: proximity labelling; GFP-WNK1 KI and WT HEK293 cells expressing Flag-TurboID-aGFP6M; 0.5 mM biotin with or without 0.5 M sorbitol for 5 min; streptavidin enrichment from lysate; DIA mass spectrometry
binding [1],binding [2],Binder
binds,,"NME3, endogenous (protein, UniProt Q13232 1-169) MICLVLTIFANLFPAACTGAHERTFLAVKPDGVQRRLVGEIVRRFERKGFKLVALKLVQASEELLREHYAELRERPFYGRLVKYMASGPVVAMVWQGLDVVRTSRALIGATNPADAPPGTIRGDFCIEVGKNLIHGSDSVESARREIALWFRADELLCWEDSAGHWLYE"
binds,binds,"TSC22D1, endogenous (protein, UniProt Q15714 1-1073) MHQPPESTAAAAAAADISARKMAHPAMFPRRGSGSGSASALNAAGTGVGSNATSSEDFPPPSLLQPPPPAASSTSGPQPPPPQSLNLLSQAQLQAQPLAPGGTQMKKKSGFQITSVTPAQISASISSNNSIAEDTESYDDLDESHTEDLSSSEILDVSLSRATDLGEPERSSSEETLNNFQEAETPGAVSPNQPHLPQPHLPHLPQQNVVINGNAHPHHLHHHHQIHHGHHLQHGHHHPSHVAVASASITGGPPSSPVSRKLSTTGSSDSITPVAPTSAVSSSGSPASVMTNMRAPSTTGGIGINSVTGTSTVNNVNITAVGSFNPNVTSSMLGNVNISTSNIPSAAGVSVGPGVTSGVNVNILSGMGNGTISSSAAVSSVPNAAAGMTGGSVSSQQQQPTVNTSRFRVVKLDSSSEPFKKGRWTCTEFYEKENAVPATEGVLINKVVETVKQNPIEVTSERESTSGSSVSSSVSTLSHYTESVGSGEMGAPTVVVQQQQQQQQQQQQQPALQGVTLQQMDFGSTGPQSIPAVSIPQSISQSQISQVQLQSQELSYQQKQGLQPVPLQATMSAATGIQPSPVNVVGVTSALGQQPSISSLAQPQLPYSQAAPPVQTPLPGAPPPQQLQYGQQQPMVSTQMAPGHVKSVTQNPASEYVQQQPILQTAMSSGQPSSAGVGAGTTVIPVAQPQGIQLPVQPTAVPAQPAGASVQPVGQAPAAVSAVPTGSQIANIGQQANIPTAVQQPSTQVPPSVIQQGAPPSSQVVPPAQTGIIHQGVQTSAPSLPQQLVIASQSSLLTVPPQPQGVEPVAQGIVSQQLPAVSSLPSASSISVTSQVSSTGPSGMPSAPTNLVPPQNIAQTPATQNGNLVQSVSQPPLIATNTNLPLAQQIPLSSTQFSAQSLAQAIGSQIEDARRAAEPSLVGLPQTISGDSGGMSAVSDGSSSSLAASASLFPLKVLPLTTPLVDGEDESSSGASVVAIDNKIEQAMDLVKSHLMYAVREEVEVLKEQIKELIEKNSQLEQENNLLKTLASPEQLAQFQAQLQTGSPPATTQPQGTTQPPAQPASQGSGPTA"
binds,,"PSME3IP1, endogenous (protein, UniProt Q9GZU8 1-254) MDGGDDGNLIIKKRFVSEAELDERRKRRQEEWEKVRKPEDPEECPEEVYDPRSLYERLQEQKDRKQQEYEEQFKFKNMVRGLDEDETNFLDEVSRQQELIEKQRREEELKELKEYRNNLKKVGISQENKKEVEKKLTVKPIETKNKFSQAKLLAGAVKHKSSESGNSVKRLKPDPEPDDKNQEPSSCKSLGNTSLSGPSIHCPSAAVCIGILPGLGAYSGSSDSESSSDSEGTINATGKIVSSIFRTNTFLEAP"
binds,binds,"NRBP2, endogenous (protein, UniProt Q9NSY0 1-501) MAAPEPAPRRAREREREREDESEDESDILEESPCGRWQKRREQVNQGNMPGLQSTFLAMDTEEGVEVVWNELHFGDRKAFAAHEEKIQTVFEQLVLVDHPNIVKLHKYWLDTSEACARVIFITEYVSSGSLKQFLKKTKKNHKAMNARAWKRWCTQILSALSFLHACSPPIIHGNLTSDTIFIQHNGLIKIGSVWHRIFSNALPDDLRSPIRAEREELRNLHFFPPEYGEVADGTAVDIFSFGMCALEMAVLEIQTNGDTRVTEEAIARARHSLSDPNMREFILCCLARDPARRPSAHSLLFHRVLFEVHSLKLLAAHCFIQHQYLMPENVVEEKTKAMDLHAVLAELPRPRRPPLQWRYSEVSFMELDKFLEDVRNGIYPLMNFAATRPLGLPRVLAPPPEEVQKAKTPTPEPFDSETRKVIQMQCNLERSEDKARWHLTLLLVLEDRLHRQLTYDLLPTDSAQDLASELVHYGFLHEDDRMKLAAFLESTFLKYRGTQA"
binds,,"OAS3, endogenous (protein, UniProt Q9Y6K5 1-1087) MDLYSTPAAALDRFVARRLQPRKEFVEKARRALGALAAALRERGGRLGAAAPRVLKTVKGGSSGRGTALKGGCDSELVIFLDCFKSYVDQRARRAEILSEMRASLESWWQNPVPGLRLTFPEQSVPGALQFRLTSVDLEDWMDVSLVPAFNVLGQAGSGVKPKPQVYSTLLNSGCQGGEHAACFTELRRNFVNIRPAKLKNLILLVKHWYHQVCLQGLWKETLPPVYALELLTIFAWEQGCKKDAFSLAEGLRTVLGLIQQHQHLCVFWTVNYGFEDPAVGQFLQRQLKRPRPVILDPADPTWDLGNGAAWHWDLLAQEAASCYDHPCFLRGMGDPVQSWKGPGLPRAGCSGLGHPIQLDPNQKTPENSKSLNAVYPRAGSKPPSCPAPGPTGAASIVPSVPGMALDLSQIPTKELDRFIQDHLKPSPQFQEQVKKAIDIILRCLHENCVHKASRVSKGGSFGRGTDLRDGCDVELIIFLNCFTDYKDQGPRRAEILDEMRAQLESWWQDQVPSLSLQFPEQNVPEALQFQLVSTALKSWTDVSLLPAFDAVGQLSSGTKPNPQVYSRLLTSGCQEGEHKACFAELRRNFMNIRPVKLKNLILLVKHWYRQVAAQNKGKGPAPASLPPAYALELLTIFAWEQGCRQDCFNMAQGFRTVLGLVQQHQQLCVYWTVNYSTEDPAMRMHLLGQLRKPRPLVLDPADPTWNVGHGSWELLAQEAAALGMQACFLSRDGTSVQPWDVMPALLYQTPAGDLDKFISEFLQPNRQFLAQVNKAVDTICSFLKENCFRNSPIKVIKVVKGGSSAKGTALRGRSDADLVVFLSCFSQFTEQGNKRAEIISEIRAQLEACQQERQFEVKFEVSKWENPRVLSFSLTSQTMLDQSVDFDVLPAFDALGQLVSGSRPSSQVYVDLIHSYSNAGEYSTCFTELQRDFIISRPTKLKSLIRLVKHWYQQCTKISKGRGSLPPQHGLELLTVYAWEQGGKDSQFNMAEGFRTVLELVTQYRQLCIYWTINYNAKDKTVGDFLKQQLQKPRPIILDPADPTGNLGHNARWDLLAKEAAACTSALCCMGRNGIPIQPWPVKAAV"
binds,,"SPACDR, endogenous (protein, UniProt Q8IZ16 1-206) MVVVMKFFRWVRRAWQRIISWVFFWRQKIKPTISGHPDSKKHSLKKMEKTLQVVETLRLVELPKEAKPKLGESPELADPCVLAKTTEETEVELGQQGQSLLQLPRTAVKSVSTLMVSALQSGWQMCSWKSSVSSASVSSQVRTQSPLKTPEAELLWEVYLVLWAVRKHLRRLYRRQERHRRHHVRCHAAPRPNPAQSLKLDAQSPL"
binds,,"FAM111B, endogenous (protein, UniProt Q6SJ93 1-734) MNSMKTEENKSFSAMEDDQRTRPEVSKDTVMKQTHADTPVDHCLSGIRKCSSTFKLKSEVNKHETALEMQNPNLNNKECCFTFTLNGNSRKLDRSVFTAYGKPSESIYSALSANDYFSERIKNQFNKNIIVYEEKTIDGHINLGMPLKCLPSDSHFKITFGQRKSSKEDGHILRQCENPNMECILFHVVAIGRTRKKIVKINELHEKGSKLCIYALKGETIEGALCKDGRFRSDIGEFEWKLKEGHKKIYGKQSMVDEVSGKVLEMDISKKKALQQKDIHKKIKQNESATDEINHQSLIQSKKKVHKPKKDGETKDVEHSREQILPPQDLSHYIKDKTRQTIPRIRNYYFCSLPRKYRQINSQVRRRPHLGRRYAINLDVQKEAINLLKNYQTLNEAIMHQYPNFKEEAQWVRKYFREEQKRMNLSPAKQFNIYKKDFGKMTANSVSVATCEQLTYYSKSVGFMQWDNNGNTGNATCFVFNGGYIFTCRHVVHLMVGKNTHPSLWPDIISKCAKVTFTYTEFCPTPDNWFSIEPWLKVSNENLDYAILKLKENGNAFPPGLWRQISPQPSTGLIYLIGHPEGQIKKIDGCTVIPLNERLKKYPNDCQDGLVDLYDTTSNVYCMFTQRSFLSEVWNTHTLSYDTCFSDGSSGSPVFNASGKLVALHTFGLFYQRGFNVHALIEFGYSMDSILCDIKKTNESLYKSLNDEKLETYDEEKGKQESSLQDHQIEPMEC"
binds,binds,"TSC22D3, endogenous (protein, UniProt Q99576 1-134) MNTEMYQTPMEVAVYQLHNFSISFFSSLLGGDVVSVKLDNSASGASVVAIDNKIEQAMDLVKNHLMYAVREEVEILKEQIRELVEKNSQLERENTLLKTLASPEQLEKFQSCLSPEEPAPESPQVPEAPGGSAV"
binds,,"TBC1D30, endogenous (protein, UniProt Q9Y2I9 1-924) MDVLPTGGGRPGLRTELEFRGGGGEARLESQEEETIPAAPPAPRLRGAAERPRRSRDTWDGDEDTEPGEACGGRTSRTASLVSGLLNELYSCTEEEEAAGGGRGAEGRRRRRDSLDSSTEASGSDVVLGGRSGAGDSRVLQELQERPSQRHQMLYLRQKDANELKTILRELKYRIGIQSAKLLRHLKQKDRLLHKVQRNCDIVTACLQAVSQKRRVDTKLKFTLEPSLGQNGFQQWYDALKAVARLSTGIPKEWRRKVWLTLADHYLHSIAIDWDKTMRFTFNERSNPDDDSMGIQIVKDLHRTGCSSYCGQEAEQDRVVLKRVLLAYARWNKTVGYCQGFNILAALILEVMEGNEGDALKIMIYLIDKVLPESYFVNNLRALSVDMAVFRDLLRMKLPELSQHLDTLQRTANKESGGGYEPPLTNVFTMQWFLTLFATCLPNQTVLKIWDSVFFEGSEIILRVSLAIWAKLGEQIECCETADEFYSTMGRLTQEMLENDLLQSHELMQTVYSMAPFPFPQLAELREKYTYNITPFPATVKPTSVSGRHSKARDSDEENDPDDEDAVVNAVGCLGPFSGFLAPELQKYQKQIKEPNEEQSLRSNNIAELSPGAINSCRSEYHAAFNSMMMERMTTDINALKRQYSRIKKKQQQQVHQVYIRADKGPVTSILPSQVNSSPVINHLLLGKKMKMTNRAAKNAVIHIPGHTGGKISPVPYEDLKTKLNSPWRTHIRVHKKNMPRTKSHPGCGDTVGLIDEQNEASKTNGLGAAEAFPSGCTATAGREGSSPEGSTRRTIEGQSPEPVFGDADVDVSAVQAKLGALELNQRDAAAETELRVHPPCQRHCPEPPSAPEENKATSKAPQGSNSKTPIFSPFPSVKPLRKSATARNLGLYGPTERTPTVHFPQMSRSFSKPGGGNSGTKKR"
binds,,"UBL4A, endogenous (protein, UniProt P11441 1-157) MQLTVKALQGRECSLQVPEDELVSTLKQLVSEKLNVPVRQQRLLFKGKALADGKRLSDYSIGPNSKLNLVVKPLEKVLLEEGEAQRLADSPPPQVWQLISKVLARHFSAADASRVLEQLQRDYERSLSRLTLDDIERLASRFLHPEVTETMEKGFSK"
